Values from PubChem BioAssay AID1259425 (University of Nebraska Medical Center, 2018).
Here is a random part of about 14,000 deposited reagents. Not all columns of the deposit are shown. The record does not give: the time to read-out.

- Aim: 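Compare each knockdown with KSR1 silencing using changes in marker transcripts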 (primary screen)
- Cell system: HCT116 human colon cancer cells
- Reagents: siRNA pool against human genes, 50 nM siRNA
- Detection: 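After 50 nM siRNA pool, branched-DNA assay measures six marker transcripts per well, minus blank, normalised to the geometric mean of two housekeeping transcripts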
- Scale: BNIP3L mRNA: higher = more BNIP3L transcript after knockdown

target gene	BNIP3L mRNA, set 1
CPOX (coproporphyrinogen oxidase)	0.11
SELL (selectin L)	0.135
PIGK (phosphatidylinositol glycan anchor biosynthesis class K)	0.0975
ZC4H2 (zinc finger C4H2-type containing)	0.126
CTLA4 (cytotoxic T-lymphocyte associated protein 4)	0.0674
MED4 (mediator complex subunit 4)	0.0778
DOK5 (docking protein 5)	0.0604
BET1 (Bet1 golgi vesicular membrane trafficking protein)	0.189
KDM6A (lysine demethylase 6A)	0.144
JAK2 (Janus kinase 2)	0.0892
IQCH (IQ motif containing H)	0.0761
MRPS18B (mitochondrial ribosomal protein S18B)	0.101
HIKESHI (heat shock protein nuclear import factor hikeshi)	0.905
ZNF691 (zinc finger protein 691)	0.132
LAMC2 (laminin subunit gamma 2)	0.0932
TAC1 (tachykinin precursor 1)	0.0783
DHRS12 (dehydrogenase/reductase 12)	0.118
CYP4A11 (cytochrome P450 family 4 subfamily A member 11)	0.118
ROR1 (ROR family WNT receptor 1)	0.0777
TBK1 (TANK binding kinase 1)	0.0928
WIF1 (Wnt inhibitory factor 1)	0.116

Ordered by “BNIP3L mRNA, set 1” (ascending): 6 of the entries above.
target gene	BNIP3L mRNA, set 1
DOK5 (docking protein 5)	0.0604
IQCH (IQ motif containing H)	0.0761
MED4 (mediator complex subunit 4)	0.0778
JAK2 (Janus kinase 2)	0.0892
KDM6A (lysine demethylase 6A)	0.144
BET1 (Bet1 golgi vesicular membrane trafficking protein)	0.189

Additional reagents follow.
target gene	BNIP3L mRNA, set 1
CIB3 (calcium and integrin binding family member 3)	0.155
RSPO3 (R-spondin 3)	0.0622
TAB1 (TGF-beta activated kinase 1 (MAP3K7) binding protein 1)	0.0817
VCF1 (VCP nuclear cofactor family member 1)	0.134
PIGP (phosphatidylinositol glycan anchor biosynthesis class P)	0.092
VASP (vasodilator stimulated phosphoprotein)	0.16
THOP1 (thimet oligopeptidase 1)	0.0992
TXN (thioredoxin)	0.05
USP5 (ubiquitin specific peptidase 5)	0.062
CYB5R2 (cytochrome b5 reductase 2)	0.0543
NLGN4Y (neuroligin 4 Y-linked)	0.16
CRYGB (crystallin gamma B)	0.0755
OR7E35P (olfactory receptor family 7 subfamily E member 35 pseudogene)	0.0911
